No constants are given. Whether binding was seen depends on the method and setting. Where a sequence is shown, tags or fusion partners need not be part of it.
Columns and labels:
Assay in all cases: immunoprecipitation with anti-Flag agarose, western blot with anti-poly(His)6
[1] = target: TL-3, Flag-tagged soluble protein
[2] = target: TL-6, Flag-tagged soluble protein
[3] = target: TL-7, Flag-tagged soluble protein

binding [1]: no binding | binding [2]: no binding | binding [3]: no binding
B1: TR6-(His), recombinant TR6 (DcR3) with hexa-histidine at the C-terminus (receptor)
chain: VAETPTYPWRDAETGERLVCAQCPPGTFVQRPCRRDSPTTCGPCPPRHYTQFWNYLERCRYCNVLCGEREEEARACHATHNRACRCRTGFFAHAGFCLEHASCPPGAGVIAPGTPSQNTQCQPCPPGTFSASSSSSEQCQPHRNCTALGLALNVPGSSSHDTLCTSCTGFPLSTRVPGAEECERAVIDFVAFQDISIKRLQRLLQALEAPEGWGPTPRAGRAALQLKLRRRLTELLGAQDGALLVRLLQALRVARMPGLERSVRERFLPVHHHHHHH

Source: patent US20040009147A1
